# Test results reported in article PMC5996148.
# Where “and” joins values, the source holds several entries; their conditions need not be identical. Equal entries are not always repeated. This is one part of the list.
# Columns and labels:
# Test in all cases: protein microarray (ProtoArray v5.0), streptavidin-Alexa Fluor 647
# Settings in all cases: 3'-biotin; 20 mM Tris (pH 7.5), 5 mM MgCl2, 100 mM KCl, 0.1% Tween-20, A/T-rich and random oligonucleotide blockers; temperature not stated; high values mean tight binding
# [1] = test system: NDUFA13 (human)
# [2] = test system: NDUFA3 (human)
# [3] = test system: NDUFA4 (human)
# [4] = test system: NDUFA5 (human)
# [5] = test system: NDUFB1 (human)
# [6] = test system: NDUFB10 (human)
# [7] = test system: NDUFB11 (human)
# [8] = test system: NDUFB2 (human)
# [9] = test system: NDUFS6 (human)
# [10] = test system: NEDD8-activating enzyme E1 catalytic subunit (human)
# [11] = test system: NEDD8-activating enzyme E1 regulatory subunit (human)
# [12] = test system: NETO1 (human)
# [13] = test system: NF-kappa-B inhibitor epsilon (human)
# [14] = test system: NF-kappa-B inhibitor zeta (human)
# [15] = test system: NFKBIB (human)
# [16] = test system: NFU1 iron-sulfur cluster scaffold homolog, mitochondrial (human)
# [17] = test system: NFYA (human)
# [18] = test system: NGFI-A-binding protein 2 (human)
# [19] = test system: NGFRAP1 (human)
# [20] = test system: NIF3L1 (human)
sequence,measurement,setting,value
GGGAGGCTGAGGCAGG [G4-1 biotinylated (PQS2)],binding signal,[1],-0.293 z-score
same,binding signal,[2],-0.264 z-score
same,binding signal,[3],-0.353 z-score
same,binding signal,[4],-0.369 z-score
same,binding signal,[5],-0.298 z-score and -0.342 z-score
same,binding signal,[6],-0.293 z-score
same,binding signal,[7],-0.312 z-score
same,binding signal,[8],-0.323 z-score
same,binding signal,[9],-0.324 z-score
same,binding signal,[10],-0.36 z-score
same,binding signal,[11],-0.246 z-score
same,binding signal,[12],-0.341 z-score
same,binding signal,[13],-0.297 z-score
same,binding signal,[14],-0.339 z-score
same,binding signal,[15],-0.338 z-score
same,binding signal,[16],-0.354 z-score
same,binding signal,[17],-0.285 z-score
same,binding signal,[18],-0.344 z-score
same,binding signal,[19],-0.268 z-score
same,binding signal,[20],-0.305 z-score

# Exported with bars between the fields: entries from further up
sequence | measurement | setting | value
GGGAGGCTGAGGCAGG [G4-1 biotinylated (PQS2)] | binding signal | [2] | -0.264 z-score
same | binding signal | [3] | -0.353 z-score
